Experimental data reported in paper PMC4395367.
No constants are given. Whether binding was seen depends on the method and setting. In cells and extracts the contact can be indirect. Some binding calls cover weakened binding; strength is not graded here.

The chains behind the UniProt entries cited, without tags or fusion partners.
UniProt O96017: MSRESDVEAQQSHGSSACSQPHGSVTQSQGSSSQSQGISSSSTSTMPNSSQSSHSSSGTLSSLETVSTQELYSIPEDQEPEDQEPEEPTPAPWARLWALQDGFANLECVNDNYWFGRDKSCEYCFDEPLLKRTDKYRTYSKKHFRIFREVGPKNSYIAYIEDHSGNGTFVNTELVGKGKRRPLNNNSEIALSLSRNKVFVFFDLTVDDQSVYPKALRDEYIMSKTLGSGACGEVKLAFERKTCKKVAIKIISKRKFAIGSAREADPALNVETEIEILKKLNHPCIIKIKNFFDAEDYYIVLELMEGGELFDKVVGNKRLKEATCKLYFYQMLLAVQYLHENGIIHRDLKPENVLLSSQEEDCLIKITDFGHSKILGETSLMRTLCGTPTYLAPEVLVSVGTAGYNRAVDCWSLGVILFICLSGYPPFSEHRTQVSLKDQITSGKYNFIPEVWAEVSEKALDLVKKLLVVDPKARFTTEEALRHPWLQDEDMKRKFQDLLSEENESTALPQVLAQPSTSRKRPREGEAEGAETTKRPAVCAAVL

Experiments:
[1] = target: T1, phosphorylated SMC1 (S957) (human (endogenous in CIN 612 and HFK)) (UniProt Q14683); experiment: proximity ligation; on-slide co-immunoprecipitation (OLINK DuoLink) in HPV 31 positive CIN 612 cells in monolayer culture, fixed with 4% methanol-free formaldehyde, permeabilized with 0.1% Triton X-100; red nuclear foci indicate complex formation
T1 sequence (chain, phosphoserine at 957): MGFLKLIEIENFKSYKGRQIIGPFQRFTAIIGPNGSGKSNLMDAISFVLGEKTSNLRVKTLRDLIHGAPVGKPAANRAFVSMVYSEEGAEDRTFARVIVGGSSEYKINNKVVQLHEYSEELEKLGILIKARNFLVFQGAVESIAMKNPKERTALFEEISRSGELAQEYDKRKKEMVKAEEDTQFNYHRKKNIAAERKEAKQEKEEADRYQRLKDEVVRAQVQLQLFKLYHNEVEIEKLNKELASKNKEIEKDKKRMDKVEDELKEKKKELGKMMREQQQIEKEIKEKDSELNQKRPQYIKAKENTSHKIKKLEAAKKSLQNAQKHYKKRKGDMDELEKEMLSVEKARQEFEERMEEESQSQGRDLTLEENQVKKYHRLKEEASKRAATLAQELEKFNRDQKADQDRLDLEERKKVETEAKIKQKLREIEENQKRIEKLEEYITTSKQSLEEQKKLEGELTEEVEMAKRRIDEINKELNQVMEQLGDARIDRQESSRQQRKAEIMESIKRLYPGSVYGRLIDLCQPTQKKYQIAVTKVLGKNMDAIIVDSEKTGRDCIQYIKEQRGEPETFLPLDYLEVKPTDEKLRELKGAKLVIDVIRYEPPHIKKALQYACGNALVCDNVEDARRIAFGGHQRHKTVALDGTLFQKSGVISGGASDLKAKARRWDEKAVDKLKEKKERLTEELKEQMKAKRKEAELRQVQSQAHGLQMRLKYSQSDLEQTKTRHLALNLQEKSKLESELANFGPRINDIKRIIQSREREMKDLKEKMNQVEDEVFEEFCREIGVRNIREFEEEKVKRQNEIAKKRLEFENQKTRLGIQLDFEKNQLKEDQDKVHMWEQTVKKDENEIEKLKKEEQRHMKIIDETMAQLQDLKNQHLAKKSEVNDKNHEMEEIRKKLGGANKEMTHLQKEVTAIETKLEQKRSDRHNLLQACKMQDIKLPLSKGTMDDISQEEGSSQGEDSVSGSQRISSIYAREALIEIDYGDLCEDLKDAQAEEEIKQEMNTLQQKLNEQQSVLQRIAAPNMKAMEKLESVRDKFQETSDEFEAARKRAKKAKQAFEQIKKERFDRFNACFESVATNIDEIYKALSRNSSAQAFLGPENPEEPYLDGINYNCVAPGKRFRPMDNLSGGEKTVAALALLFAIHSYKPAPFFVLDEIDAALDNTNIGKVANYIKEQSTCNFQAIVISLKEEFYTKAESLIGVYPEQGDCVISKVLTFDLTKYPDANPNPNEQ

[2] = target: T1, phosphorylated SMC1 (S957) (human (endogenous in CIN 612 and HFK)); experiment: condition: only in normal keratinocytes (HFK) without HPV; proximity ligation; on-slide co-immunoprecipitation (OLINK DuoLink) in normal human foreskin keratinocytes (HFK, HPV negative), same antibodies, fixed with 4% methanol-free formaldehyde, permeabilized with 0.1% Triton X-100

binding [1]: binds
binding [2]: no binding
Substance: phosphorylated CHK2 (Thr-68) (from UniProt O96017 1-543)
